Test results as given in publication PMC8198571.
These are yes or no findings as the source states them, for the method shown. Binding seen in cells or lysates may run through a third protein. Some entries that bind do so weakly or less than the wild type.

The chains behind the UniProt entries cited, without tags or fusion partners.
UniProt P25071: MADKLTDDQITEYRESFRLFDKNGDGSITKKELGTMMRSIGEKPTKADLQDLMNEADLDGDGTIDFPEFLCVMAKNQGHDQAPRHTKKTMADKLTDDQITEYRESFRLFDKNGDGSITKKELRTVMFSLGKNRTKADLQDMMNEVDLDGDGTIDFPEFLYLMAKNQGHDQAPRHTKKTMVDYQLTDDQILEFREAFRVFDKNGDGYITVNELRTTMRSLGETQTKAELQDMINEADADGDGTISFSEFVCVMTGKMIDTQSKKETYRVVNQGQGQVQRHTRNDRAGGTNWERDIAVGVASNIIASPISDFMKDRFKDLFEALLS

What was measured:
[1] = target: T1, MLO4 (full length), BiFC construct (Arabidopsis thaliana) (UniProt O23693); test: split reporter; BiFC, YFP signal; onion epidermal cells transformed with a gene gun; read after 16-24 hours by confocal microscopy
T1 sequence: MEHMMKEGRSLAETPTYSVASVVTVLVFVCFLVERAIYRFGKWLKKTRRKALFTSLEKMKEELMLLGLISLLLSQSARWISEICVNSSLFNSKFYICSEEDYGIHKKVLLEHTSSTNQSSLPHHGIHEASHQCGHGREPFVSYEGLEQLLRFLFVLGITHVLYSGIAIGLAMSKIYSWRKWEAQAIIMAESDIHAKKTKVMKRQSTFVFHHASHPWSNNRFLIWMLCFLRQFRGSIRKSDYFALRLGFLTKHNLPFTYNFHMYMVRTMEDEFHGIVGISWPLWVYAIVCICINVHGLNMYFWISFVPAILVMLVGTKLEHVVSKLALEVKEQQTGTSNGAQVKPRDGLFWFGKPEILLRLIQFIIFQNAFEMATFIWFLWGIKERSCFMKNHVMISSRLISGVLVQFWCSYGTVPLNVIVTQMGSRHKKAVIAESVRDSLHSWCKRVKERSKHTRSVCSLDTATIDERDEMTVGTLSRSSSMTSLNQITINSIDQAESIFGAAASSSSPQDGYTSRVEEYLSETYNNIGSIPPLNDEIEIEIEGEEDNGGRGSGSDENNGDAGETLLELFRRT

[2] = target: T2, MLO4 (full length), LCI construct (Arabidopsis thaliana) (UniProt O23693); test: split reporter; Luciferase Complementation Imaging (LCI); CML12 in pCAMBIA1300-nLUC, MLO4 in pCAMBIA1300-cLUC; tobacco leaves injected with A. tumefaciens GV3101; signal detected 3-6 days after infiltration
T2 sequence: T1 sequence

Substance	binding [1]	binding [2]
CML12, BiFC construct (from UniProt P25071 1-324)	binds	
CML12, LCI construct (from UniProt P25071 1-324)		binds
